No constants are given. Whether binding was seen depends on the method and setting. Some binding calls cover weakened binding; strength is not graded here.

Amino acid sequences for entries named in this document (tags omitted). A change or cut given only in a name is not applied to a line headed by its entry. Residues count along the entry.
UniProt Q9HC73: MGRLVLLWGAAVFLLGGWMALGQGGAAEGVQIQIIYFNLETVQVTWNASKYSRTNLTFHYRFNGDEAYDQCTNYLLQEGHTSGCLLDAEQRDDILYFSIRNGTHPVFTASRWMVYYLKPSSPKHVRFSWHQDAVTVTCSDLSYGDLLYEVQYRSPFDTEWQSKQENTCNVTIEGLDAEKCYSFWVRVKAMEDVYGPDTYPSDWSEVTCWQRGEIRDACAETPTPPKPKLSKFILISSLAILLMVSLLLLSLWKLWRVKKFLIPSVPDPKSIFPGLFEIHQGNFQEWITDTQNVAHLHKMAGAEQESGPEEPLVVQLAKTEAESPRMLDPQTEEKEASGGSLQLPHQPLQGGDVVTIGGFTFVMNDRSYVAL
UniProt P16871: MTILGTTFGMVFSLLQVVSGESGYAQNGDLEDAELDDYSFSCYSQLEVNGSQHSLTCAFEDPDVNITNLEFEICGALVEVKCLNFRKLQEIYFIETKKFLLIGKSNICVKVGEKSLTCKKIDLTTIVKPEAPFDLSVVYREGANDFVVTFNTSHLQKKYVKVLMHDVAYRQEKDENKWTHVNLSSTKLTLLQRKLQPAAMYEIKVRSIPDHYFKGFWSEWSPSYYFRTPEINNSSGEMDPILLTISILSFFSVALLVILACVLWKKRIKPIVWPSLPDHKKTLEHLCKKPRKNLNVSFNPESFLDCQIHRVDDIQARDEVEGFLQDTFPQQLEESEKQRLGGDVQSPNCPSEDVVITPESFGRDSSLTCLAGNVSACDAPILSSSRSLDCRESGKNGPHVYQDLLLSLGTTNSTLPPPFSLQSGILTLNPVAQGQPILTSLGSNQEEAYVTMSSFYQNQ
UniProt Q969D9, residues 29-159: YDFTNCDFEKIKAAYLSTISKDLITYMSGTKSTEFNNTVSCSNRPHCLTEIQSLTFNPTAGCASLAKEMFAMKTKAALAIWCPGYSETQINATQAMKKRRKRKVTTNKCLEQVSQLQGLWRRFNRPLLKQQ

For the test, the target named is Human TSLPR-IL-7Rα receptor complex on transfected cells (human) (UniProt Q9HC73+P16871). The experiment in a line: flow cytometry on cells; 10 ng/mL biotinylated human TSLP on cells co-transfected with the TSLP receptor chains, 2 h; PE-streptavidin; only the binder purified. Background: A flow cytometer gives signals particle by particle.

On to “Biotinylated human TSLP (from UniProt Q969D9 29-159) (ligand)”, for which the binding entry is “binds”.

These data come from publication PMC12651572 (Cells, 2025).
